Publication PMC11980836
These are yes or no findings as the source states them, for the method shown. Binding seen in cells or lysates may run through a third protein. Some entries that bind do so weakly or less than the wild type. For part of these data: Where a sequence is shown, tags or fusion partners need not be part of it.

What was measured:
[1] = biological target: T1, Flag-tagged ARMC1 (F-ARMC1), wild type (UniProt Q9NVT9); assay: co-sedimentation; F-ARMC1 affinity purification size fractionated over a 10 to 30% sucrose gradient in PSB with 0.25% digitonin, 55,000 rpm, 1 hour, 4°C; 11 fractions, immunoblotting and Coomassie staining
T1 sequence: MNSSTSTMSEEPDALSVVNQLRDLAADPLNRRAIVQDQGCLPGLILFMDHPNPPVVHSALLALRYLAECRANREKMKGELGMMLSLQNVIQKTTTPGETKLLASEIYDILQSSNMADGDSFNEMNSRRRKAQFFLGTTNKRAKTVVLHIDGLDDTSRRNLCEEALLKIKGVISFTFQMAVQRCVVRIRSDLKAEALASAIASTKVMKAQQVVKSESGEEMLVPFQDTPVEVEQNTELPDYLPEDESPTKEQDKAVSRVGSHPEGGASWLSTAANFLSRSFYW

[2] = biological target: T1, Flag-tagged ARMC1 (F-ARMC1), wild type; assay: co-IP; small-scale copurification: membranes of cells expressing F-ARMC1 variants solubilized in 1% digitonin in RNC buffer, M2 anti-Flag resin 1 hour at 4°C, washed in 0.1% digitonin, eluted with sample buffer, immunoblotting; cells without or with siRNA knock-down of MIRO1 and MIRO2, the three MTFRs, TMEM11, DNAJC11 or MTCH2
D37R F-ARMC1 = biological target: T2, D37R F-ARMC1 (UniProt Q9NVT9); assay: as above
T2 sequence: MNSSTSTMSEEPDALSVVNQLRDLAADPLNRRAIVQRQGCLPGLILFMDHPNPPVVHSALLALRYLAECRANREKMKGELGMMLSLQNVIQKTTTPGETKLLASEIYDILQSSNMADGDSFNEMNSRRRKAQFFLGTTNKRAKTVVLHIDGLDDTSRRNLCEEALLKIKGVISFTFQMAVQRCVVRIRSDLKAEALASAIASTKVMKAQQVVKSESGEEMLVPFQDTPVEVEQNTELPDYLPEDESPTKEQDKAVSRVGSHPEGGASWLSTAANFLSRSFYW

Measured: binding

B1: metaxin 1 (MTX1) (protein, UniProt Q13505 1-466)
chain: MLLGGPPRSPRSGTSPKGPWSSTGHVQFGKSPQTWPRRTRPRSPEPAAPSGVRGSTWTRRRDSPRRAGPTALSRYVGHLWMGRRPPSPEARGPVPRSSAASRARRSLASPGISPGPLTATIGGAVAGGGPRQGRAEAHKEVFPGQRVGKMAAPMELFCWSGGWGLPSVDLDSLAVLTYARFTGAPLKVHKISNPWQSPSGTLPALRTSHGEVISVPHKIITHLRKEKYNADYDLSARQGADTLAFMSLLEEKLLPVLVHTFWIDTKNYVEVTRKWYAEAMPFPLNFFLPGRMQRQYMERLQLLTGEHRPEDEEELEKELYREARECLTLLSQRLGSQKFFFGDAPASLDAFVFSYLALLLQAKLPSGKLQVHLRGLHNLCAYCTHILSLYFPWDGAEVPPQRQTPAGPETEEEPYRRRNQILSVLAGLAAMVGYALLSGIVSIQRATPARAPGTRTLGMAEEDEEE
binds: all assays above
